Test results: PMC2396291

The chains behind the UniProt entries cited, without tags or fusion partners. Where a name states a change or a piece, a line headed by the entry shows the natural chain unless it says otherwise.
UniProt Q381V1: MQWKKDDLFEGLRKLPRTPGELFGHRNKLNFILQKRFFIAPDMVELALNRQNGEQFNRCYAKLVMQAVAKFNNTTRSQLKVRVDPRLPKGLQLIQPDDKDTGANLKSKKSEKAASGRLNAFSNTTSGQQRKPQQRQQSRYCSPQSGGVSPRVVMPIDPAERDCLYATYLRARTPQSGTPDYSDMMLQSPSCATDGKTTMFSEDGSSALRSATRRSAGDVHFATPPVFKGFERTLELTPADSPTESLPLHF
UniProt Q586F4: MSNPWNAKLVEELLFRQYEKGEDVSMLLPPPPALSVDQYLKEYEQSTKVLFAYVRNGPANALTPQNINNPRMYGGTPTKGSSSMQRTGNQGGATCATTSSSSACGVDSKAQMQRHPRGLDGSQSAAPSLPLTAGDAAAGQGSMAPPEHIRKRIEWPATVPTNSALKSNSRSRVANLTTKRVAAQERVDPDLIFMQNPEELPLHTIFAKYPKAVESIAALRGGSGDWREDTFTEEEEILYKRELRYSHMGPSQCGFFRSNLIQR
UniProt Q57ZI5: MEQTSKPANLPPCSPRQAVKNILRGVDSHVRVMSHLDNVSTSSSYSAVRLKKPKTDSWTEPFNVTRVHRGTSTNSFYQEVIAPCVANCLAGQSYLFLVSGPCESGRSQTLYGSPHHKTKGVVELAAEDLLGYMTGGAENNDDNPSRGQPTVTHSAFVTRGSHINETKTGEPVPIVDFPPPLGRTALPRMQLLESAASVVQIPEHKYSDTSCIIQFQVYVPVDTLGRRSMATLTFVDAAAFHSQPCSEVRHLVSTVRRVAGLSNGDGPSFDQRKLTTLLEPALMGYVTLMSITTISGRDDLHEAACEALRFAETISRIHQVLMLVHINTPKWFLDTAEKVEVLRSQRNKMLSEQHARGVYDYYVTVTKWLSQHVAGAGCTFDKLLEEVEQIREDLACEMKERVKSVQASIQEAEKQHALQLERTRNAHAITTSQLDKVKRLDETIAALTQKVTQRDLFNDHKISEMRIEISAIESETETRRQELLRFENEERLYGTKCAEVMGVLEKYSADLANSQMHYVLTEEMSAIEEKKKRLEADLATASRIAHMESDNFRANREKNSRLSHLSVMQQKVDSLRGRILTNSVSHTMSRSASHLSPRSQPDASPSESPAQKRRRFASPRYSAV

Columns and labels:
[1] = molecular target: T1, KMP-11 (yeast two-hybrid fusion) (Trypanosoma brucei) (UniProt P69301); assay: two-hybrid; Gal4 system; prey in pGADT7 (AH109), bait in pGBKT7 (Y187), mated, spotted on SD-Leu-Trp and SD-His-Leu-Trp plates (Fig. 2B)
T1 sequence: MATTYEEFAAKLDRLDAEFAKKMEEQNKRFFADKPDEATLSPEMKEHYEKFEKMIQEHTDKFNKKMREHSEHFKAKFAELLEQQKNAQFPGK

[2] = molecular target: TbCPC2 (yeast two-hybrid fusion) (Trypanosoma brucei) (UniProt Q381V1); assay: as above
[3] = molecular target: T2, KMP-11-HA (Trypanosoma brucei) (UniProt P69301); assay: co-IP; procyclic cell lysate (25 mM Tris-Cl pH 7.6, 100 mM NaCl, 1% Nonidet P-40, 1 mM dithiothreitol) with anti-HA mAb or anti-Tubulin mAb at 4°C, protein G Sepharose; blot with anti-Protein C mAb or anti-HA mAb
T2 sequence: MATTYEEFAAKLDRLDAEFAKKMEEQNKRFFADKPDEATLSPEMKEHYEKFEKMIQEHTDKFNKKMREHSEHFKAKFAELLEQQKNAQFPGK

[4] = molecular target: T3, GST-KMP-11 (Trypanosoma brucei) (UniProt P69301); assay: pull-down; purified GST-fusion proteins bound to glutathione Sepharose beads incubated with in vitro translated TbAUK1-HA, washed six times; Western blot with anti-HA mAb; only the target purified
T3 sequence: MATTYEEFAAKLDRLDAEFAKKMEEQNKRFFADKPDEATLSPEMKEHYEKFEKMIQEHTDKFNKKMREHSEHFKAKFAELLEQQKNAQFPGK

[5] = molecular target: TbCPC1 (yeast two-hybrid fusion) (Trypanosoma brucei) (UniProt Q586F4); assay: two-hybrid; Gal4 system; prey in pGADT7 (AH109), bait in pGBKT7 (Y187), mated, spotted on SD-Leu-Trp and SD-His-Leu-Trp plates (Fig. 2B)
[6] = molecular target: α-tubulin (T. brucei (endogenous in procyclic cells)); assay: co-IP; procyclic cell lysate (25 mM Tris-Cl pH 7.6, 100 mM NaCl, 1% Nonidet P-40, 1 mM dithiothreitol) with anti-HA mAb or anti-Tubulin mAb at 4°C, protein G Sepharose; blot with anti-Protein C mAb or anti-HA mAb

- binding [1]: no binding
Molecule: TbAUK1 (yeast two-hybrid fusion) (Trypanosoma brucei) (enzyme)

- binding [4]: no binding
Molecule: TbAUK1-HA (in vitro translated) (Trypanosoma brucei) (enzyme)

- binding [6]: binds
B1: KMP-11-HA (protein, UniProt P69301 1-92)
chain: MATTYEEFAAKLDRLDAEFAKKMEEQNKRFFADKPDEATLSPEMKEHYEKFEKMIQEHTDKFNKKMREHSEHFKAKFAELLEQQKNAQFPGK

Continued, molecule first:

Molecule: TbCPC1 (yeast two-hybrid fusion) (from UniProt Q586F4)
- binding [2]: binds

Molecule: TbAUK1-PTP (Trypanosoma brucei) (enzyme)
- binding [3]: no binding

Molecule: TbKIN-B (yeast two-hybrid fusion) (from UniProt Q57ZI5)
- binding [5]: binds
- binding [2]: binds

These are yes or no findings as the source states them, for the method shown. For some of these results: Binding can be weak; no strength is given. For some of these results: Binding seen in cells or lysates may run through a third protein. For some of these results: Sequences can lack the tags named with a protein. Each block holds one molecule with its values, some of them ahead of it.
